Inconclusive means that the source gave no clear call. Such entries were picked first, then a sample of the others. Potencies of inconclusive entries are doubtful fits and often do not repeat. The source made the active and inactive calls. The calls were made as follows: active = hit-call score of the fitted dose curve at least 0.9, where 1 is the maximum; inconclusive = response in the unintended direction; inactive = score below 0.9.
assay: ATG_M_19_XSP2: Attagene TRANS-FACTORIAL Multi-Species (XSP2) HepG2 Assay for M32 Transcription Factor (Internal Marker) (AID 2283822)
Experimental: ATG_XSP2_multi-species_TRANS is a cell-based, multiplexed assay created by modifying the existing Attagene TRANS-FACTORIAL system to include a panel of nuclear receptors from some or all the following species: human (Homo sapiens), mouse (Mus musculus), frog (Xenopus laevis), zebrafish (Danio rerio), chicken (Gallus gallus), and turtle (Chrysemys picta). The ECOTOX-FACTORIAL format uses HepG2, a human liver cell line, with measurements taken at 24 hours after chemical dosing in a 24-well plate. Xsp2 included 3 nM 6-alpha-fluorotestosterone and 1.5 nM norgestrel to stimulate the androgen receptor.ATG_M_19_XSP2 is one of 29 assay components measured or calculated from the ATG_XSP2_multi-species_TRANS assay. It is designed to make measurements of mRNA induction, a form of inducible reporter, as detected with fluorescence intensity signals by Reverse transcription polymerase chain reaction (RT-PCR) and Capillary electrophoresis technology.This assay endpoint, ATG_M_19_XSP2, was analyzed in the positive analysis fitting direction relative to DMSO as the negative control and baseline of activity. Using a type of inducible reporter, measures of mRNA for gain-of-signal activity can be used to understand the background control at the transcription factor-level as they relate to the gene. Furthermore, this assay endpoint can be referred to as a secondary readout, because this assay has produced multiple assay endpoints where this one serves a background control function. To generalize the intended target to other relatable targets, this assay endpoint is annotated to the background measurement intended target family, where the subfamily is internal marker.
Human liver HepG2 cells are transiently transfected with multiple reporter transcription units (MRTUs) in 6-well plates using FuGene 6 reagent (Roche; 3 ml FuGene/1 mg DNA). The MRTU constructs are regulated by a cis-regulating element (promoter). […] A major difference between the CIS and TRANS system is that in CIS activities of endogenous TFs are measured, whereas the TRANS assay evaluates changes in activities of exogenous, chimeric NR-Gal4 proteins. […] At the end of 24 hour incubation, total RNA was isolated using TriZol reagent (Invitrogen). The isolated RNA is then reverse-transcribed using oligo(dT) primer and Mo-MLV reverse transcriptase (Invitrogen) with DNAse I (Ambion) treatment for 30 min. The one-tenth of the produced cDNA was amplified by PCR using Taq DNA polymerase (Invitrogen) and two reporter sequence-specific primers. The PCR products were fluorescently labeled by primer extension with 6-arboxyfluorescein (6-FAM) 5'-labeled reporter sequence-specific primer (2 min at 95 C, 20 s at 68 C and 10 min at 72 C) and these products were digested with 5U of HpaI (New England Biolabs) for 2h at 37 C. The fragments were purified using Qiaquick PCR columns (Qiagen), analyzed on an ABI 3130xL genetic analyzer (Applied Biosystems) with peak positions identified by using a set of X-rhodamine (ROX)-labeled MapMarker1000 molecular weight standards (BioVentures). The raw capillary electrophoresis data was processed using Attagraph software (Attagene).

Q: For `CCCCCCCCCCCCN`, which outcome is on record?
A: inactive

Q: For `Oc1ccc2c(c1)-c1ccccc1C2`, which AC50 is on record?
A: inconclusive: 100 µM

Q: With `CCN(Cc1c(F)cccc1Cl)c1c([N+](=O)[O-])cc(C(F)(F)F)cc1[N+](=O)[O-]` as the compound, how does the outcome read?
A: inactive

Q: With `O=C(c1ccc(O)cc1)c1ccc(O)cc1O` as the compound, how does the AC50 read?
A: inconclusive: 10 µM

Q: For `O=c1c(O)c(-c2ccc(O)cc2)oc2cc(O)cc(O)c12`, which AC50 is on record?
A: inconclusive: 100 µM

Q: With `CC(C)(C)c1cc(O)c(C(C)(C)C)cc1O` as the compound, how does the AC50 read?
A: inconclusive: 5.69 µM

Q: With `OCc1cccc(Oc2ccccc2)c1` as the compound, how does the AC50 read?
A: inconclusive: 100 µM

Q: Which AC50 does the source give for `CC(=O)C(C)=CC1C(C)=CCCC1(C)C` (stereo not drawn) here?
A: inconclusive: 0.0965 µM

Q: With `C=CCc1cc(S(=O)(=O)c2ccc(O)c(CC=C)c2)ccc1O` as the compound, how does the AC50 read?
A: inconclusive: 15.9 µM

Q: Which outcome does the source give for `CCCCC(CC)CN1C(=O)C2C3C=CC(C3)C2C1=O` (stereo not drawn) here?
A: inactive

Q: With `C=CCOC(Cn1ccnc1)c1ccc(Cl)cc1Cl` (stereo not drawn) as the compound, how does the AC50 read?
A: inconclusive: 100 µM

Q: For `Clc1ccc(C(c2ccccc2Cl)C(Cl)Cl)cc1` (stereo not drawn), which AC50 is on record?
A: inconclusive: 100 µM

Q: For `Oc1ccccc1Cc1ccccc1O`, which outcome is on record?
A: inactive

Q: Which outcome does the source give for `Clc1nc(Cl)c(Cl)c(Cl)c1Cl` here?
A: inactive

Q: For `O=C(O)Cc1cc(I)c(Oc2ccc(O)c(I)c2)c(I)c1`, which AC50 is on record?
A: inconclusive: 0.000667 µM
